# Like-named read-outs stand apart in the source and are kept apart here. These are yes or no findings as the source states them, for the method shown. A result given as binding can be weak or reduced; the word gives no strength. For some assays here: Where a sequence is shown, tags or fusion partners need not be part of it.
# Amino acid sequences for entries named in this document (tags omitted). A change or cut given only in a name is not applied to a line headed by its entry.
# UniProt Q06148: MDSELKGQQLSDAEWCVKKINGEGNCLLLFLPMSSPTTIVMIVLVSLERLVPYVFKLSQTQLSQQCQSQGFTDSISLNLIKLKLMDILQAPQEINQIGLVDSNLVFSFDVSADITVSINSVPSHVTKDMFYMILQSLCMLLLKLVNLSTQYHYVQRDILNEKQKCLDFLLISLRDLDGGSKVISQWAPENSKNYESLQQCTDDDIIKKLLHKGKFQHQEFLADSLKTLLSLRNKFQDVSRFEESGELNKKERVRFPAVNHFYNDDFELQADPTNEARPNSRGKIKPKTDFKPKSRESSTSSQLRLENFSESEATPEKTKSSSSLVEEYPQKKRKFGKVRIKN
# UniProt P32829: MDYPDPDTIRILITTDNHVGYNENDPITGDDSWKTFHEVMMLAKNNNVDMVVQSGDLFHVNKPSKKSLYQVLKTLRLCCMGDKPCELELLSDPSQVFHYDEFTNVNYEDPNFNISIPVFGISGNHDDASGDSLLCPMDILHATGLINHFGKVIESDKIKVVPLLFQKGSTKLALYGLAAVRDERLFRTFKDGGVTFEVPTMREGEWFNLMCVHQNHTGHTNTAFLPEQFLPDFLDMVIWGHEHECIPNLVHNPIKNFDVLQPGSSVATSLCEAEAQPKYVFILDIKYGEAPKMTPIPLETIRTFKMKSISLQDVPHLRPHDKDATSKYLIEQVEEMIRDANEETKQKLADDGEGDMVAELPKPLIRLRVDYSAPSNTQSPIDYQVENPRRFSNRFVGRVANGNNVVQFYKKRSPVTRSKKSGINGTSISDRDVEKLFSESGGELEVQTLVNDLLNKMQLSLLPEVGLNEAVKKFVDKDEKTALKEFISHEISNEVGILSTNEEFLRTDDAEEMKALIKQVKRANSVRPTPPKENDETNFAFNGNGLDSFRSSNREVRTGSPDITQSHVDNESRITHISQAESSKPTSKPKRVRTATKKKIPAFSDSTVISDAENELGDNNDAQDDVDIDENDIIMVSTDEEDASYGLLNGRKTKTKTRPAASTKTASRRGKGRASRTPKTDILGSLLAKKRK
# What was measured:
# Test in all cases: pull-down; GST-tagged Nej1 (wild type or mutant) immobilized on glutathione-sepharose; ~300-600 ng His-tagged protein pre-cleared and incubated in 25 mM HEPES pH 7.5, 100 mM NaCl, 10% glycerol, 100 ug/ml BSA, 0.5 mM DTT, 0.1% Tween 20, 4°C, 3 hours; western blot with anti-His and anti-GST; both purified
# [1] = molecular target: recombinant GST-Nej1 (wild type) (budding yeast) (UniProt Q06148)
# [2] = molecular target: recombinant GST-Nej1-3KR (non-acetylatable mutant) (budding yeast) (UniProt Q06148)
# [3] = molecular target: recombinant GST-Nej1 (wild type) (budding yeast) (UniProt Q06148); remark: listed apart in the source
# [4] = molecular target: recombinant GST-Nej1-3KR (non-acetylatable mutant) (budding yeast) (UniProt Q06148); remark: listed apart in the source
# [5] = molecular target: recombinant GST-Nej1-3KQ (acetyl-mimicking mutant) (budding yeast) (UniProt Q06148)
binding [1],binding [2],binding [3],binding [4],binding [5],Molecule
binds,binds,,,,C-terminal region of recombinant Mre11 (from UniProt P32829) (domain or fragment)
,,binds,binds,binds,"recombinant Yku80, 6XHis tagged (protein, UniProt Q04437 1-629) MSSESTTFIVDVSPSMMKNNNVSKSMAYLEYTLLNKSKKSRKTDWISCYLANCPVSENSQEIPNVFQIQSFLAPVTTTATIGFIKRLKQYCDQHSHDSSNEGLQSMIQCLLVVSLDIKQQFQARKILKQIVVFTDNLDDLDITDEEIDLLTEELSTRIILIDCGKDTQEERKKSNWLKLVEAIPNSRIYNMNELLVEITSPATSVVKPVRVFSGELRLGADILSTQTSNPSGSMQDENCLCIKVEAFPATKAVSGLNRKTAVEVEDSQKKERYVGVKSIIEYEIHNEGNKKNVSEDDQSGSSYIPVTISKDSVTKAYRYGADYVVLPSVLVDQTVYESFPGLDLRGFLNREALPRYFLTSESSFITADTRLGCQSDLMAFSALVDVMLENRKIAVARYVSKKDSEVNMCALCPVLIEHSNINSEKKFVKSLTLCRLPFAEDERVTDFPKLLDRTTTSGVPLKKETDGHQIDELMEQFVDSMDTDELPEIPLGNYYQPIGEVTTDTTLPLPSLNKDQEENKKDPLRIPTVFVYRQQQVLLEWIHQLMINDSREFEIPELPDSLKNKISPYTHKKFDSTKLVEVLGIKKVDKLKLDSELKTELEREKIPDLETLLKRGEQHSRGSPNNSNN"

# From PMC8483352
